From the supplement of paper PMC10849652
Some of the results follow.

How the values were obtained:
Assay in all cases: log2 fold change, soluble protein after heating vs DMSO (PISA); higher = thermal stabilisation; K562 lysate, 10 uM; active = over 0.2 and 3.5 SD of the protein, either way, in both replicates (recomputed)
vemurafenib = compound: CCCS(=O)(=O)Nc1ccc(F)c(C(=O)c2c[nH]c3ncc(-c4ccc(Cl)cc4)cc23)c1F [vemurafenib]
Method in brief: (§1)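 K562 pellets were dounce-homogenised in PBS pH 7.4 containing 1 mM MgCl2, and the crude extract, at 1 mg/mL protein, was exposed to 10 μM compound for 30 min. Aliquots were heated for 3 min across 48°C-58°C, pooled, brought to 0.5% NP-40 at 4°C and spun at 21,000xg for 90 min, with the supernatant taken as soluble protein. TMTpro 16plex LC-MS/MS with equalised channel sums quantified that protein. Values are log-two fold changes in thermal stability relative to solvent controls, taken from duplicates.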

[1] = compound: CCCS(=O)(=O)Nc1ccc(F)c(C(=O)c2c[nH]c3ncc(Cl)cc23)c1F
Method in brief: as §1

barasertib = compound: CCN(CCCOc1ccc2c(Nc3cc(CC(=O)Nc4cccc(F)c4)[nH]n3)ncnc2c1)CCOP(=O)(O)O [barasertib]
Method in brief: as §1

[2] = compound: CC[C@@H]1C(=O)N(C)c2cnc(Nc3ccc(C(=O)NC4CCN(C)CC4)cc3OC)nc2N1C1CCCC1
Method in brief: as §1

volasertib = compound: CC[C@@H]1C(=O)N(C)c2cnc(Nc3ccc(C(=O)N[C@H]4CC[C@H](N5CCN(CC6CC6)CC5)CC4)cc3OC)nc2N1C(C)C [volasertib]
Method in brief: as §1

[3] = compound: CCn1c(C(=O)N(C2CC2)C2CC2)cc2c3c(ncn3C)c(Nc3cc(C)n(C)n3)nc21
Method in brief: as §1

[4] = compound: CCn1cc(-c2ccnc3[nH]c(-c4cccc(CN(C)C)c4)cc23)c(-c2ccc(NC(=O)N(C)C)cc2)n1
Method in brief: as §1

[5] = compound: CN1CCC(CNc2ccc3ncc(-c4cccc(OC(F)(F)F)c4)n3n2)CC1
Method in brief: as §1

saracatinib = compound: CN1CCN(CCOc2cc(OC3CCOCC3)c3c(Nc4c(Cl)ccc5c4OCO5)ncnc3c2)CC1 [saracatinib]
Method in brief: as §1

sotrastaurin = compound: CN1CCN(c2nc(C3=C(c4c[nH]c5ccccc45)C(=O)NC3=O)c3ccccc3n2)CC1 [sotrastaurin]
Method in brief: as §1

Measured: log2 fold change

PREB (UniProt Q9HCU5)
inactive: vemurafenib 0.025 | [1] 0.021 | barasertib -0.012 | [2] 0.032 | volasertib 0.021 | [3] -0.013 | [4] -0.021 | [5] 0.041 | saracatinib -0.001 | sotrastaurin 0.022

PRKCA (UniProt P17252)
inactive: vemurafenib 0.019 | [1] -0.016 | barasertib 0.051 | [2] -0.186 | volasertib -0.054 | [3] 0.004 | [4] 0.101 | [5] -0.207 | saracatinib -0.046
active: sotrastaurin 0.924

PRPF40A (UniProt O75400)
inactive: vemurafenib 0.01 | [1] -0.002 | barasertib 0.001 | [2] 0.092 | volasertib 0.008 | [3] 0.02 | [4] 0.041 | [5] -0.036 | saracatinib -0.003 | sotrastaurin -0.069

PPP1CA (UniProt P62136)
inactive: vemurafenib -0.035 | [1] -0.024 | barasertib -0.003 | [2] 0.024 | volasertib -0.007 | [3] 0.022 | [4] -0.003 | [5] 0.045 | saracatinib -0.014 | sotrastaurin -0.02

PRMT8 (UniProt Q9NR22)
inactive: vemurafenib 0.059 | [1] 0.021 | barasertib 0.007 | [2] -0.009 | volasertib -0.009 | [3] -0.005 | [5] 0.179 | saracatinib -0.018 | sotrastaurin 0.007
active: [4] -0.285

PRIM1 (UniProt P49642)
inactive: vemurafenib -0.036 | [1] 0.022 | barasertib 0.031 | [2] -0.089 | volasertib -0.069 | [3] 0.062 | [4] -0.008 | [5] -0.029 | saracatinib -0.002 | sotrastaurin 0.007

PPIP5K2 (UniProt H0Y9S9)
inactive: vemurafenib -0.054 | [1] -0.07 | barasertib -0.136 | [2] -0.048 | volasertib -0.313 | [3] 0.293 | saracatinib -0.101

PRMT5 (UniProt O14744)
inactive: vemurafenib 0.006 | [1] -0.008 | barasertib -0.007 | [2] 0.02 | volasertib -0.007 | [3] -0.009 | [4] -0.067 | [5] 0.017 | saracatinib -0.032 | sotrastaurin 0.015

PPIP5K1 (UniProt Q6PFW1)
inactive: vemurafenib -0.02 | [1] 0.023 | barasertib 0.031 | [2] -0.014 | volasertib -0.043 | [3] -0.002 | [4] -0.005 | [5] -0.006 | saracatinib -0.016 | sotrastaurin 0.023

PRCP (UniProt P42785)
inactive: vemurafenib -0.014 | [1] -0.005 | barasertib -0.006 | [2] -0.046 | volasertib -0.074 | [3] -0.047 | [4] -0.067 | [5] 0.042 | saracatinib -0.013 | sotrastaurin 0.041

PPP1R12B isoform 6 (UniProt O60237)
inactive: vemurafenib 0.08 | [1] 0.036 | barasertib -0.046 | [2] 0.133 | volasertib -0.029 | [3] -0.209 | saracatinib -0.047 | sotrastaurin -0.057

PPP4R4 (UniProt Q6NUP7)
inactive: vemurafenib 0.207 | [1] 0.013 | barasertib 0.138 | [2] 0.423 | volasertib -0.048 | [3] -0.307 | saracatinib -0.003 | sotrastaurin -0.065

PPP1CB (UniProt P62140)
inactive: vemurafenib 0.002 | [1] 0.034 | barasertib -0.008 | [2] 0.016 | volasertib -0.001 | [3] -0.019 | [4] 0.076 | [5] -0.009 | saracatinib -0.013 | sotrastaurin 0.001

PRKCSH isoform 2 (UniProt P14314)
active: [4] -1.03
inactive: vemurafenib 0.007 | [1] -0.053 | barasertib -0.159 | [2] 0.03 | volasertib -0.052 | [3] -0.101 | [5] 0.326 | saracatinib 0.022 | sotrastaurin 0.199

PROSER3, A0A2R8Y8D9
inactive: saracatinib -0.033 | sotrastaurin 0.085

PROSER1 (UniProt Q86XN7)
inactive: vemurafenib 0.116 | [1] 0.086 | barasertib 0.115 | volasertib -0.108 | [3] 0.206 | [4] 0.103 | [5] 0.136 | saracatinib -0.09

PPP1R7 isoform 2 (UniProt Q15435)
inactive: [1] -0.106 | volasertib 0.044 | [3] 0.021

PRADC1 (UniProt Q9BSG0)
active: barasertib -0.509
inactive: [1] 0.011 | volasertib 0.074 | [3] -0.05 | [4] 0.057 | [5] 0.101 | saracatinib 0.054 | sotrastaurin -0.015

PPP6R3 isoform 6 (UniProt Q5H9R7)
inactive: [3] -0.038 | [4] -0.37 | [5] 0.224

PRNP (UniProt P04156)
inactive: [1] 0.003 | barasertib -0.038 | volasertib 0.034 | [3] -0.126 | [4] -0.064 | [5] 0.106 | saracatinib -0.131 | sotrastaurin 0.055

PPL (UniProt O60437)
inactive: barasertib 0.459 | [2] -0.004 | saracatinib 0.122 | sotrastaurin 0.14

PREP (UniProt H0Y5Y0)
inactive: [1] 0.019 | volasertib 0.079 | [4] 0.678 | [5] -0.144

PPP1R3D (UniProt O95685)
inactive: vemurafenib 0.036 | [1] -0.039 | barasertib 0.012 | volasertib -0.024 | [3] -0.025 | [4] -0.07 | [5] 0.013 | sotrastaurin 0.053

PPTC7 (UniProt Q8NI37)
inactive: vemurafenib -0.09 | [3] 0.054 | saracatinib -0.037

PPP2CB (UniProt E5RHC1)
inactive: [1] -0.098 | barasertib 0.409 | volasertib -0.104 | [3] 0.073 | [4] 0.192 | [5] -0.135 | saracatinib -0.14 | sotrastaurin 0.063

PPME1 (UniProt Q9Y570)
inactive: [1] -0.042 | barasertib 0.026 | [2] 0.104 | volasertib -0.012 | saracatinib -0.043

PRELID1 (UniProt Q9Y255)
inactive: vemurafenib -0.042 | barasertib 0.037 | [3] 0.119 | sotrastaurin -0.022

PPM1B isoform 2 (UniProt O75688)
inactive: [1] 0.12 | barasertib -0.073 | [2] -0.017 | volasertib -0.019 | [3] 0.069 | saracatinib 0.021

PPP1R7 (UniProt C9JD73)
inactive: [1] -0.13 | volasertib -0.026

PRPF40A isoform 3 (UniProt O75400)
inactive: [1] -0.008 | [2] 0.044 | volasertib 0.016 | [3] 0.043

PRPF40B (UniProt Q6NWY9)
inactive: sotrastaurin 0.211

PRH1 (UniProt P02810)
inactive: [4] 0.273 | [5] -0.333

PROSER3 (UniProt Q2NL68)
inactive: vemurafenib -0.057 | [4] -0.012 | [5] 0.075 | sotrastaurin 0.023

PPP1R14A, A0A0B4J2A3
inactive: [1] -0.034 | volasertib -0.146

PPP1R15B (UniProt Q5SWA1)
inactive: [4] 0.038 | [5] -0.077

PPP1R11 (UniProt O60927)
inactive: [1] 0.069 | barasertib -0.04 | [2] 0.153 | volasertib 0.046 | [3] -0.101 | [4] 0.16 | [5] -0.067 | saracatinib -0.05 | sotrastaurin 0.001

PPP6R3 isoform 2 (UniProt Q5H9R7)
inactive: [3] -0.041 | [4] -0.18 | [5] -0.056

PPP2R5C isoform 2 (UniProt Q13362)
inactive: vemurafenib 0.014 | barasertib -0.267 | [3] -0.081 | [4] -0.023 | [5] -0.033 | saracatinib 0.014 | sotrastaurin 0.134

Two consecutive records out of the list so far:
PPP1CA (UniProt P62136)
inactive: vemurafenib -0.035 | [1] -0.024 | barasertib -0.003 | [2] 0.024 | volasertib -0.007 | [3] 0.022 | [4] -0.003 | [5] 0.045 | saracatinib -0.014 | sotrastaurin -0.02

PRMT8 (UniProt Q9NR22)
inactive: vemurafenib 0.059 | [1] 0.021 | barasertib 0.007 | [2] -0.009 | volasertib -0.009 | [3] -0.005 | [5] 0.179 | saracatinib -0.018 | sotrastaurin 0.007
active: [4] -0.285

Carrying on:

PPM1J (UniProt Q5JR12)
inactive: [1] 0.117 | volasertib -0.078

PPP1R12C isoform 3 (UniProt Q9BZL4)
inactive: barasertib 0.136 | [3] 0.028 | [4] 0.013 | [5] 0.141 | sotrastaurin -0.019
